PubChem BioAssay AID652243 – Drosophila RNAi Screening Center, 2013
The deposit covers about 24,000 reagents; below is an unselected part of those with a known target gene and a result. Over the whole deposit, 246 (1%) got an active call. 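Plates not normalised; calls are printed but the firefly/Renilla ratio behind them is not deposited; fold cut for lowering reported inconsistently.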 The raw values are shown without normalisation. Reagents against one gene are numbered here. Names joined by + are all predicted targets of the reagent. The record does not give: the amount of reagent.

Aim: 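Fly genes required for human androgen receptor driven transcription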 (primary screen)
Cells: Drosophila S2R+ cells
Reagent: long dsRNA against Drosophila genes
Duration: 72 h (48 h, then 24 h hormone)
Treatment: synthetic androgen R1881 at 10 nM for 24 h
Read-out: 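Firefly light from an androgen-responsive reporter and Renilla control light per well, raw and unnormalised, for each of two replicates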
Scale: firefly reporter light: higher = more light from androgen-responsive reporter; Renilla control light: higher = more constitutive control signal (cell number, transfection)
Rule for the call: 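Hit when the log firefly-to-Renilla ratio dropped or increased by a fixed fold versus the mean of GFP or LacZ controls across duplicate plates; lowering cut given as 1.5 and as 3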
Meaning of the calls: active = hit: reporter lowered or raised; inactive = no hit

target gene | reagent no. | firefly reporter light, replicate 1 | firefly reporter light, replicate 2 | Renilla control light, replicate 1 | Renilla control light, replicate 2 | activity call
superdeath (Suppressor of ER stress-induced death) | 1 | 4.18e5 | 4.20e5 | 2.34e6 | 2.69e6 | inactive
superdeath (Suppressor of ER stress-induced death) | 2 | 6.26e5 | 1.10e6 | 1.35e6 | 8.11e5 | inactive
Nlg3 (Neuroligin 3) | 1 | 80566 | 1.70e5 | 3.16e6 | 2.93e6 | inactive
Nlg3 (Neuroligin 3) | 2 | 85104 | 1.51e5 | 2.44e6 | 1.74e6 | inactive
Nlg3 (Neuroligin 3) | 3 | 57362 | 68641 | 1.77e6 | 1.13e6 | inactive
Nlg3 (Neuroligin 3) | 4 | 9.35e5 | 9.56e5 | 1.11e6 | 1.20e6 | inactive
mRpS18B (mitochondrial ribosomal protein S18B) | 1 | 9.31e5 | 8.65e5 | 1.86e6 | 1.93e6 | inactive
Ir94e (Ionotropic receptor 94e) | 1 | 3.82e5 | 6.56e5 | 2.55e6 | 3.72e6 | inactive
CG4115 | 1 | 1.68e5 | 1.99e5 | 2.40e6 | 2.85e6 | inactive
Cpr64Ac (Cuticular protein 64Ac) | 1 | 2.24e5 | 1.48e5 | 2.31e6 | 1.14e6 | inactive
Cpr64Ac (Cuticular protein 64Ac) | 2 | 6.29e5 | 5.22e5 | 1.67e6 | 1.28e6 | inactive
nmd (no mitochondrial derivative) | 1 | 9.10e5 | 4.13e5 | 1.45e6 | 1.05e6 | inactive
nmd (no mitochondrial derivative) | 2 | 5.84e5 | 4.63e5 | 2.08e6 | 1.55e6 | inactive
CR41509 + Clbn + CR41507 + 1 more | 1 | 9.24e5 | 8.55e5 | 1.97e6 | 2.34e6 | inactive
CG1638 | 1 | 1.66e5 | 1.67e5 | 2.32e6 | 2.72e6 | inactive
CG1638 | 2 | 4.43e5 | 3.33e5 | 1.18e6 | 1.17e6 | inactive
CG12898 | 1 | 3.01e5 | 1.75e5 | 1.70e6 | 1.43e6 | inactive
Boh2 (Buddy of Hmr 2) | 1 | 2.24e5 | 2.42e5 | 1.40e6 | 1.61e6 | inactive
CG32117 | 1 | 9.42e5 | 8.77e5 | 2.39e6 | 2.14e6 | inactive
CG12617 | 1 | 1.85e5 | 1.43e5 | 2.03e6 | 2.00e6 | inactive
CG12617 | 2 | 4.19e5 | 3.34e5 | 1.41e6 | 1.07e6 | inactive
Ugt37C2 (UDP-glycosyltransferase family 37 member C2) | 1 | 2.19e5 | 2.56e5 | 1.74e6 | 1.57e6 | inactive
Hexo2 (Hexosaminidase 2) | 1 | 5.15e5 | 5.33e5 | 3.44e6 | 4.33e6 | inactive
sqh (spaghetti squash) | 1 | 67791 | 73405 | 8.31e5 | 5.92e5 | inactive
sqh (spaghetti squash) | 2 | 1.81e5 | 2.44e5 | 6.40e5 | 5.39e5 | inactive
sp3 (spermathreecae) | 1 | 3.50e5 | 2.12e5 | 3.52e6 | 3.36e6 | inactive
ida (imaginal discs arrested) | 1 | 1.48e5 | 1.01e5 | 9.50e5 | 1.02e6 | inactive

Continued; the last 4 above are carried over.
target gene | reagent no. | firefly reporter light, replicate 1 | firefly reporter light, replicate 2 | Renilla control light, replicate 1 | Renilla control light, replicate 2 | activity call
sqh (spaghetti squash) | 1 | 67791 | 73405 | 8.31e5 | 5.92e5 | inactive
sqh (spaghetti squash) | 2 | 1.81e5 | 2.44e5 | 6.40e5 | 5.39e5 | inactive
sp3 (spermathreecae) | 1 | 3.50e5 | 2.12e5 | 3.52e6 | 3.36e6 | inactive
ida (imaginal discs arrested) | 1 | 1.48e5 | 1.01e5 | 9.50e5 | 1.02e6 | inactive
Aasdh (Aminoadipate-semialdehyde dehydrogenase) | 1 | 1.23e5 | 1.72e5 | 1.05e6 | 1.11e6 | inactive
tow (target of wingless) | 1 | 7.38e5 | 9.14e5 | 1.14e6 | 1.75e6 | inactive
tow (target of wingless) | 2 | 3.40e5 | 3.33e5 | 6.99e5 | 6.16e5 | inactive
cry (cryptochrome) | 1 | 1.70e5 | 2.28e5 | 2.35e6 | 2.70e6 | inactive
Gr36c (Gustatory receptor 36c) | 1 | 1.60e5 | 1.40e5 | 1.29e6 | 1.31e6 | inactive
Gr36c (Gustatory receptor 36c) | 2 | 2.73e5 | 3.37e5 | 6.10e5 | 4.81e5 | inactive
SdhD (Succinate dehydrogenase, subunit D) | 1 | 1.88e5 | 2.45e5 | 2.95e6 | 2.74e6 | inactive
cv (crossveinless) | 1 | 2.78e5 | 4.00e5 | 3.22e6 | 3.47e6 | inactive
Polr2B (RNA polymerase II subunit B) | 1 | 53361 | 29964 | 1.36e5 | 1.66e5 | inactive
CG13894 | 1 | 4.75e5 | 5.72e5 | 1.23e6 | 1.63e6 | inactive
CG13894 | 2 | 4.48e5 | 4.24e5 | 8.39e5 | 1.06e6 | inactive
Drep4 (DNA fragmentation factor-related protein 4) | 1 | 2.72e5 | 3.41e5 | 1.76e6 | 2.18e6 | inactive
CG13700 | 1 | 1.97e5 | 1.07e5 | 2.00e6 | 1.88e6 | inactive
CG13700 | 2 | 9.48e5 | 8.65e5 | 1.22e6 | 1.08e6 | inactive
